The other results are listed elsewhere or left out.

Chains of the proteins cited; added tags and fusions are not shown.
UniProt Q0JBA9, entry or part of it: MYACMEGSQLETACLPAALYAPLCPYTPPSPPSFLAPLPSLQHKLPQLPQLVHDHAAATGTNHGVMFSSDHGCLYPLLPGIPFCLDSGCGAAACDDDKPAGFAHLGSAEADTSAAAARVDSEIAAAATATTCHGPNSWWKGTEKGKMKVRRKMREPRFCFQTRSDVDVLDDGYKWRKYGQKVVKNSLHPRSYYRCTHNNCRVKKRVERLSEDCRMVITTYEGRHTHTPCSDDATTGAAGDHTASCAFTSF

The results in this text go back to publication PMC7819943, “Rice protein-binding microarrays: a tool to detect cis-acting elements near promoter regions in rice”.

The target in this experiment is OsWRKY34 (Oryza sativa, UniProt Q0JBA9 1-250). The experiment is described as follows: protein-binding microarray (RPBM); PBS, 2% BSA, 51.3 ng/ul salmon testes DNA, 50 uM zinc acetate, 200 nM TF, 25 C, 1 h; high values mean tight binding. The note with it: protein: recombinant; tags: N-terminal polyhistidine and DsRed monomer fusion (pET32a); label: CyDye5-dUTP incorporated in the synthesized complementary strand; 3' TTTTT single-stranded linker to array surface; dsDNA, one strand shown. The essentials: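 The binding signal is fluorescence intensity per feature, in arbitrary units, read on an Axon 4000B scanner. Polyhistidine- and DsRed-tagged transcription factors (N-terminal fusions) from E. coli BL21-CodonPlus were purified on Ni–NTA and applied at 200 nM for 1 h at 25 °C to a double-stranded, BSA-blocked custom Agilent array in buffer with 50 µM zinc acetate.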
“ATACATGCATATATCTAACTATCCATTTTTGTTTTCAGCCCGGAGTCACCTAGTGCAG”: the binding signal is 8590 fluorescence intensity (a.u.).

With “ATTCGTTTCGTATTTATGCCCGATATTATCCGTGCTTCTACGGAGTCACCTAGTGCAG”, the binding signal is 9200 fluorescence intensity (a.u.).

Regarding “GGCCTTCATGGAGCTCCTCCCTTTCTTTGCGGGGAGTTTACGGAGTCACCTAGTGCAG”, the binding signal was 8580 fluorescence intensity (a.u.).

Consider “TGTTTGTTATTCCACGCTTCGTTTTTTTTTTTTTGAATTACGGAGTCACCTAGTGCAG”, for which the binding signal is 9500 fluorescence intensity (a.u.).

“CAAATAGACACTTATAACATGCGCACTTTTATCCCTACAACGGAGTCACCTAGTGCAG”: the binding signal is 8130 fluorescence intensity (a.u.).

As to “CAAAACTGTGGTATGGGCCGGGGTGGGGCGGCGCGGGCCACGGAGTCACCTAGTGCAG”, the binding signal is 13800 fluorescence intensity (a.u.).

For the sequence “ACCATTGATTTTTCAGTACGTGTTTGACCATTCGTCTTATCGGAGTCACCTAGTGCAG”, the binding signal was 13300 fluorescence intensity (a.u.).

Turning to “TTTAGTAAGAAGGTTTTTCTCTGTTTCTCTTTCTCTCTCTCGGAGTCACCTAGTGCAG”, the binding signal is 11200 fluorescence intensity (a.u.).

As for “ACGGTTTGGATGGTGATTTGAGCTAATGTGGCGTTGACATCGGAGTCACCTAGTGCAG”, the binding signal was 10200 fluorescence intensity (a.u.).

Turning to “ACGTCCATCCGTTTCTTGCATGCCACCTAAATGATTATGACGGAGTCACCTAGTGCAG”, the binding signal was 12900 fluorescence intensity (a.u.).

As to “GAGTCGACCGTTGCTGTGGGCCCCACCCCTCACCGCCGGACGGAGTCACCTAGTGCAG”, the binding signal was 10400 fluorescence intensity (a.u.).

As to “GATCCGATTGCACTATTAAATTTGTTGCAATTAAATCTTCCGGAGTCACCTAGTGCAG”, the binding signal was 8560 fluorescence intensity (a.u.).

Turning to “GTTTTCTCTTATATATCTGCGCGTGAGTTGTGTGCTGAATCGGAGTCACCTAGTGCAG”, the binding signal is 10700 fluorescence intensity (a.u.).

Regarding “GCCACCCTCGCCGTGCATCCCCAATCCCTACAGTGAAGGCCGGAGTCACCTAGTGCAG”, the binding signal is 8280 fluorescence intensity (a.u.).

Regarding “GGAAACCTGCTCCCATCTACTCCACGGCCTCACTCACTGCCGGAGTCACCTAGTGCAG”, the binding signal was 8710 fluorescence intensity (a.u.).

For the sequence “GGGGAGACATCTCAAACTCAGAGTGACATTTGGGGTGGTTCGGAGTCACCTAGTGCAG”, the binding signal is 9220 fluorescence intensity (a.u.).

As for “CGCGTACGGGTATCCAACCAGCGTCCTCTGCATCGATCTCCGGAGTCACCTAGTGCAG”, the binding signal was 9540 fluorescence intensity (a.u.).

For the sequence “TTCTCTCTGATGGTTGCATCACTTGCACTGCTCTGAGTTTCGGAGTCACCTAGTGCAG”, the binding signal was 8800 fluorescence intensity (a.u.).

Regarding “CGGTGGTGTTGTCCCCGTGTCCTACTTCTTGTCCCAATGACGGAGTCACCTAGTGCAG”, the binding signal is 10000 fluorescence intensity (a.u.).

For the sequence “TGACTTTCTTTACGACCTCTCTCTCACATCTCACCTCGTGCGGAGTCACCTAGTGCAG”, the binding signal is 8290 fluorescence intensity (a.u.).

With “CGTTTTTTAAGAGGCAATGTTGTTGACTTTTGGATACATGCGGAGTCACCTAGTGCAG”, the binding signal is 8300 fluorescence intensity (a.u.).

As for “TTTGAGGCTAAAACCCTACTTATCCTTCTCCAATTATCTTCGGAGTCACCTAGTGCAG”, the binding signal is 8990 fluorescence intensity (a.u.).

Consider “AGATGCTCCCTGTTCCATCCTCCACGAATTTCCTTTGCCTCGGAGTCACCTAGTGCAG”, for which the binding signal is 8250 fluorescence intensity (a.u.).

On to “CTTAAACTGGCATGACTTGTGTGTTTCTTTCCTTTTTCCTCGGAGTCACCTAGTGCAG”, for which the binding signal was 10700 fluorescence intensity (a.u.).

“CATGCAGTATAAAAACACACTGCTGACTTTGTTTGACTATCGGAGTCACCTAGTGCAG”: the binding signal is 10200 fluorescence intensity (a.u.).

Regarding “CACTTTAAGACTGTGTTTGTTCAAGTGGGTTGGGAACTCACGGAGTCACCTAGTGCAG”, the binding signal was 9900 fluorescence intensity (a.u.).

On to “ATATTTCTGTCGCGGAGGGGCTTTTTTGCAAAATAGGAAACGGAGTCACCTAGTGCAG”, for which the binding signal was 10900 fluorescence intensity (a.u.).

With “CCATCACACTCACTGCCTCTTGTGCCACTCTCTCGCTTGCCGGAGTCACCTAGTGCAG”, the binding signal is 9770 fluorescence intensity (a.u.).

With “CTCACTCCACCACTCCGGTTTTATACTCCTCCTATCTCTCCGGAGTCACCTAGTGCAG”, the binding signal is 8610 fluorescence intensity (a.u.).

Turning to “ACTTCTGCCGCGCCATTTTTGTCACCCCAGGTTTGCTGCCCGGAGTCACCTAGTGCAG”, the binding signal is 9040 fluorescence intensity (a.u.).

On to “CAGCATCATCCTTTCGCTTATGCTTATATTTATCAGCCAACGGAGTCACCTAGTGCAG”, for which the binding signal was 8940 fluorescence intensity (a.u.).

“TATTGTATTGGGTTGGGCCTTTGTGGTTGTCTAATGAAGTCGGAGTCACCTAGTGCAG”: the binding signal was 22300 fluorescence intensity (a.u.).

Regarding “CTTCCAATTTCCCATCGCCCCGTCGCCGACTCGCCGTCTCCGGAGTCACCTAGTGCAG”, the binding signal was 10800 fluorescence intensity (a.u.).

“CCAACACACATGTACTCGTGGATTCCGTAGTCGTCGTCATCGGAGTCACCTAGTGCAG”: the binding signal was 8280 fluorescence intensity (a.u.).

Regarding “CACTCGTCAGGCGTCCCACTGCTCCGCTGCTATAAGAAACCGGAGTCACCTAGTGCAG”, the binding signal is 10100 fluorescence intensity (a.u.).

For “ATGGATGGTGGGGAATAATGCATATGTTACAGCGATTTAACGGAGTCACCTAGTGCAG”, the binding signal was 12300 fluorescence intensity (a.u.).

Consider “TTCCCGCATGCACAACGACAACCCTCCTGTGTGCACGTTACGGAGTCACCTAGTGCAG”, for which the binding signal was 8390 fluorescence intensity (a.u.).

On to “CTCTGCTTTGCGTGGGCACTGTTTAACCATTTTGTCATGTCGGAGTCACCTAGTGCAG”, for which the binding signal is 8370 fluorescence intensity (a.u.).

Turning to “GTTATAGCGCATCTATCAATCGTACTAAATTTCATTGTCCCGGAGTCACCTAGTGCAG”, the binding signal is 8450 fluorescence intensity (a.u.).

As to “CTCGCTGCGGCACTGCCATTTTCCATATCCACCCTTAGAACGGAGTCACCTAGTGCAG”, the binding signal was 13100 fluorescence intensity (a.u.).

Consider “ATCGGGCGACCAATCTGAATGAGCCTCTATTTCTACTTCTCGGAGTCACCTAGTGCAG”, for which the binding signal is 8500 fluorescence intensity (a.u.).

Consider “ACTTGCACACACACTTGCTCCTCATTCCTCTCTCCTCTCCCGGAGTCACCTAGTGCAG”, for which the binding signal is 8150 fluorescence intensity (a.u.).

For the sequence “ACTGCCGCAGCCGTCATCACCGTCGACCTCACCGGCGCCGCGGAGTCACCTAGTGCAG”, the binding signal was 10500 fluorescence intensity (a.u.).

With “TATTCTCGCCACCTAGTATAAAAAATCATGGTACTTTGTTCGGAGTCACCTAGTGCAG”, the binding signal was 8660 fluorescence intensity (a.u.).

Take “TAGCTCCAGTTATCTTTTAATTTTCCGCTGTATTTATGTACGGAGTCACCTAGTGCAG”: the binding signal was 12300 fluorescence intensity (a.u.).

“AGGAAATTTTAGACCTTTCCATTTCTCTTCTTCTTAGCTACGGAGTCACCTAGTGCAG”: the binding signal was 9940 fluorescence intensity (a.u.).

On to “TTGCTGCTTTCATGTTGCCGTTCTTGCTTGTTACAATTGACGGAGTCACCTAGTGCAG”, for which the binding signal is 10800 fluorescence intensity (a.u.).

As for “GCTGGTCACATCACAAACACGTACACTCACACCGTTGCCTCGGAGTCACCTAGTGCAG”, the binding signal was 12300 fluorescence intensity (a.u.).

For the sequence “TGTCCTACTACTAACATTTTTGTTCCCATTTCGATACCCACGGAGTCACCTAGTGCAG”, the binding signal is 8090 fluorescence intensity (a.u.).

Take “GTTGCAAAATTTTTCTTCAAACTCCTAATTTTTTCATCACCGGAGTCACCTAGTGCAG”: the binding signal is 14200 fluorescence intensity (a.u.).

“AACCATCTATACGACTCTATCTTTTCATTACTTAGCAGTGCGGAGTCACCTAGTGCAG”: the binding signal was 8390 fluorescence intensity (a.u.).

In the case of “GCTATTATCTTTTGTGTTAGCTATTTCTCTATGATATACCCGGAGTCACCTAGTGCAG”, the binding signal is 9530 fluorescence intensity (a.u.).

As to “CCACTCATTCTCATTTACAAGTCATTTCCACTTTGACCATCGGAGTCACCTAGTGCAG”, the binding signal was 11700 fluorescence intensity (a.u.).

Turning to “CCGCCGCCGCCAGCCTTCCTCGCATGCCCTCCTCTGACCTCGGAGTCACCTAGTGCAG”, the binding signal is 8330 fluorescence intensity (a.u.).
